PubChem BioAssay AID1224829 – NIAID – 2016
Purpose: 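Secondary check of hits that alter LPS-induced p65 translocation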 (follow-up of hits). Cell system: mouse RAW264.7 G9 macrophage reporter cells. Reagent: single siRNA against mouse genes, 100 nM. Timing: 2 days of siRNA knock-down, then 40 min of LPS before fixing. Conditions: LPS (Salmonella minnesota R595) at 10 ng/ml. Measurement: 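Imaging of GFP-p65 after 40 min of LPS; nuclear over perinuclear ring intensity ratio, scaled to plate median and non-targeting control wells, given as z-score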. Reading the numbers: p65 translocation z-score and gene median z-score, per vendor: higher = more nuclear NF-kappaB p65 after LPS. Active means: 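Active means the replicate-mean z-score lies beyond plus or minus 2, in either direction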. Meaning of the calls: active = changed p65 translocation (either direction); inactive = no clear change.
In all, the deposit lists about 3,800 reagents; shown is a random part of them. 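Calls cover raised and lowered translocation; gene median uses one vendor's three siRNAs; qiagen siRNAs acted more weakly than ambion siRNAs.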 The numbers tell different reagents against one gene apart. Reagent sequences are not shown.

Gene	reagent no.	siRNA vendor or control pool	p65 translocation z-score, replicate mean	p65 translocation z-score, replicate 1	p65 translocation z-score, replicate 2	gene median z-score, per vendor	activity call
Eif3g	1	ambion single siRNA	-1.24	0.0297	-2.51	-1.46	inactive
Eif3g	2	ambion single siRNA	-0.293	0.22	-0.806	-1.46	inactive
Eif3g	3	ambion single siRNA	-2.16	-2.22	-2.11	-1.46	active
Eif3g	4	qiagen single siRNA	-1.49	-1.49		-0.86	inactive
Eif3g	5	qiagen single siRNA	-0.671	-0.0648	-1.28	-0.86	inactive
Eif3g	6	qiagen single siRNA	-0.444	-0.444		-0.86	inactive
P2rx5	1	ambion single siRNA	0.969	0.841	1.1	0.709	inactive
P2rx5	2	ambion single siRNA	0.709	0.709		0.709	inactive
P2rx5	3	ambion single siRNA	-4.14	-5.13	-3.15	0.709	active
P2rx5	4	qiagen single siRNA	0.177	-0.506	0.861	-1.15	inactive
P2rx5	5	qiagen single siRNA	-0.825	0.146	-1.8	-1.15	inactive
P2rx5	6	qiagen single siRNA	-2.52	-1.88	-3.15	-1.15	active
Hnrnph1	1	ambion single siRNA	-2.06	-2.24	-1.88	-2.06	active
Hnrnph1	2	ambion single siRNA	-2.33	-1.62	-3.03	-2.06	active
Hnrnph1	3	ambion single siRNA	-1.19	-2.47	0.089	-2.06	inactive
Hnrnph1	4	qiagen single siRNA	3.28	1.27	5.29	-0.14	active
Hnrnph1	5	qiagen single siRNA	-0.769	-0.769		-0.14	inactive
Hnrnph1	6	qiagen single siRNA	-0.303	-0.14	-0.466	-0.14	inactive
Rab7	1	ambion single siRNA	0.158	0.521	-0.205	-1.67	inactive
Rab7	2	ambion single siRNA	-1.67	-1.8	-1.54	-1.67	inactive
Rab7	3	ambion single siRNA	-3.69	-3.81	-3.56	-1.67	active
Rab7	4	qiagen single siRNA	-1.88	-1.57	-2.18	-1.52	inactive
Rab7	5	qiagen single siRNA	-0.997	-0.91	-1.08	-1.52	inactive
Rab7	6	qiagen single siRNA	-1.6	-1.72	-1.47	-1.52	inactive
Dclre1b	1	ambion single siRNA	2.04	1.29	2.8	-0.121	active
Dclre1b	2	ambion single siRNA	-0.718	-0.686	-0.75	-0.121	inactive
Dclre1b	3	ambion single siRNA	-0.745	0.443	-1.93	-0.121	inactive
Dclre1b	4	qiagen single siRNA	0.855	0.538	1.17	0.251	inactive
Dclre1b	5	qiagen single siRNA	-0.382	-0.0359	-0.727	0.251	inactive
Dclre1b	6	qiagen single siRNA	-0.246	-1.22	0.731	0.251	inactive
Entr1	1	ambion single siRNA	0.74	0.372	1.11	0.447	inactive
Entr1	2	ambion single siRNA	0.402	0.402		0.447	inactive
Entr1	3	ambion single siRNA	0.496	0.447	0.545	0.447	inactive
Entr1	4	qiagen single siRNA	-1.66	-1.07	-2.25	1.72	inactive
Entr1	5	qiagen single siRNA	1.72	0.807	2.64	1.72	inactive
Entr1	6	qiagen single siRNA	4.4	3.62	5.19	1.72	active

5 entries from above, arranged by “p65 translocation z-score, replicate 1”, low to high.
Gene	reagent no.	siRNA vendor or control pool	p65 translocation z-score, replicate mean	p65 translocation z-score, replicate 1	p65 translocation z-score, replicate 2	gene median z-score, per vendor	activity call
P2rx5	3	ambion single siRNA	-4.14	-5.13	-3.15	0.709	active
Eif3g	6	qiagen single siRNA	-0.444	-0.444		-0.86	inactive
Eif3g	5	qiagen single siRNA	-0.671	-0.0648	-1.28	-0.86	inactive
P2rx5	2	ambion single siRNA	0.709	0.709		0.709	inactive
P2rx5	1	ambion single siRNA	0.969	0.841	1.1	0.709	inactive
